This note sets out measurements from the supplement of paper PMC6411743.

Protein sequences, listed by entry. Tags and fused reporters are not part of them. Lines headed by an entry give the natural chain unless they say otherwise; changes in a name come on top.
UniProt Q9Y535: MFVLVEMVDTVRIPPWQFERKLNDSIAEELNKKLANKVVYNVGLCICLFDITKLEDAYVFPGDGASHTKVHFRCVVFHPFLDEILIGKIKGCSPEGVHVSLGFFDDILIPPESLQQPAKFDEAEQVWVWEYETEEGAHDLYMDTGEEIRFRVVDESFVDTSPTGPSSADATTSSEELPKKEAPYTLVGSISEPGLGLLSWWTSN
UniProt Q9Y6J9: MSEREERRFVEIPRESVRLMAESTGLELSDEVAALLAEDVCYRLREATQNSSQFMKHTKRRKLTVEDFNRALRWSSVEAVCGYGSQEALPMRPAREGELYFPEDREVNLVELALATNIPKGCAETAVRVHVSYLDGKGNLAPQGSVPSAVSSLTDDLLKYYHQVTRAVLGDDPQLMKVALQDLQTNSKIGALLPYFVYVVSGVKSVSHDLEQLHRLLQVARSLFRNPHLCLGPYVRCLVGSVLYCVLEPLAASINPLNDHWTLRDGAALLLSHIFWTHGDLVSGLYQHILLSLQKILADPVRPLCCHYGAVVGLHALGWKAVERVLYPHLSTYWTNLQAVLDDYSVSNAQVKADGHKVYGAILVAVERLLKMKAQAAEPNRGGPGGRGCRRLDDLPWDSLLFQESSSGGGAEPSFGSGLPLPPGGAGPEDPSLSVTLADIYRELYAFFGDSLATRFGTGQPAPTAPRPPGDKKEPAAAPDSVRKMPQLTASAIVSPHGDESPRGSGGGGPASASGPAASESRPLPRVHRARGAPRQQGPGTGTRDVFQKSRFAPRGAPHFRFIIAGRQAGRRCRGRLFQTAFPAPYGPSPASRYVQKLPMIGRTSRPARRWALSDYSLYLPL
UniProt Q9Y696: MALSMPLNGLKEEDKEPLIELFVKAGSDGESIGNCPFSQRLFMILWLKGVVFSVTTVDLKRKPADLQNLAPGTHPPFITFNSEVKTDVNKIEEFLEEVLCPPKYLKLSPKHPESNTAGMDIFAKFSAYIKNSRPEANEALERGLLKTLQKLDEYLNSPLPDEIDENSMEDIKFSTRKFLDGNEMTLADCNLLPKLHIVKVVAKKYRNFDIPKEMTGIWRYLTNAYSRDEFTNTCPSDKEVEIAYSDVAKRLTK
UniProt Q9Y3L3: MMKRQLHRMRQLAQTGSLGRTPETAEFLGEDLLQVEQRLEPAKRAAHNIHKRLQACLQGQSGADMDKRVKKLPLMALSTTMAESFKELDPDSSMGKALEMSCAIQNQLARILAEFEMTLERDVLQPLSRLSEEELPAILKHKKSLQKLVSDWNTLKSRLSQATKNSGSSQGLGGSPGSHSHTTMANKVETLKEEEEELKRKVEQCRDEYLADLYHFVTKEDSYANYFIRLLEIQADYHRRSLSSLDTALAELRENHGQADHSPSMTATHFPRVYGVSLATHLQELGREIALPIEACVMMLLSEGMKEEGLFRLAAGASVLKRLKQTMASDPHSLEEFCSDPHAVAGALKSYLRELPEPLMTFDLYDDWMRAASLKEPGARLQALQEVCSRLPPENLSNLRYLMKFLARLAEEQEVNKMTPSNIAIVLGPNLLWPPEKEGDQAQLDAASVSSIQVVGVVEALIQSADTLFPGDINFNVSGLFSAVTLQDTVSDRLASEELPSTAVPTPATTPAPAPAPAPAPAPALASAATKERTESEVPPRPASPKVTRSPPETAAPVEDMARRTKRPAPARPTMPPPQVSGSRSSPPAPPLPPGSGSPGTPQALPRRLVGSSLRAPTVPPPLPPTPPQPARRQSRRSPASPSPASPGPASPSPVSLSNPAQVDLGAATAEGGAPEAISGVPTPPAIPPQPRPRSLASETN
UniProt Q9Y5W8: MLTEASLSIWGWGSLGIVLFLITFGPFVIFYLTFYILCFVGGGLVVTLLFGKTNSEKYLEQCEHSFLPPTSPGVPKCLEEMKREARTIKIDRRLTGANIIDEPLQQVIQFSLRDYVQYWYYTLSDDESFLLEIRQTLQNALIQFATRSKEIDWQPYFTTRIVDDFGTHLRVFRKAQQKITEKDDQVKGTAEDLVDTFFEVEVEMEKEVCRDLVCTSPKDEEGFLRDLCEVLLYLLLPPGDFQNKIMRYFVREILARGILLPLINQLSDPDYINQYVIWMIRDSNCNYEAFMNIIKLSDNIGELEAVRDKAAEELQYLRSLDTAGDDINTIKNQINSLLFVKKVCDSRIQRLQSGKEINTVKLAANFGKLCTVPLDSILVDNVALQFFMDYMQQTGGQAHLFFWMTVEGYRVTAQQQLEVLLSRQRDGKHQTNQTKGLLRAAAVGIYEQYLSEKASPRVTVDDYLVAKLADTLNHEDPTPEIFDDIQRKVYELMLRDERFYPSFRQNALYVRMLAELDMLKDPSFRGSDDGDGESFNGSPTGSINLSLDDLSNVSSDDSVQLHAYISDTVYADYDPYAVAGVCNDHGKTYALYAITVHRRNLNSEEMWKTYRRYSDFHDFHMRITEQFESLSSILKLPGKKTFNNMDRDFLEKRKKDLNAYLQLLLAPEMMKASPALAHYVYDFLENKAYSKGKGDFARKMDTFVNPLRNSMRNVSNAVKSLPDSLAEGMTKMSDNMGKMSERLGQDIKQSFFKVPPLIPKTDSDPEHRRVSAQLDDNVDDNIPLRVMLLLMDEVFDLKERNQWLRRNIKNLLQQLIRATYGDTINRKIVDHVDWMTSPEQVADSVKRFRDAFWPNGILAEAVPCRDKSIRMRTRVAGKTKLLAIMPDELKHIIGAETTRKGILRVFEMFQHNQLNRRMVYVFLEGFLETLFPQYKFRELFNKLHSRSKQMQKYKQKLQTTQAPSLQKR
UniProt Q9Y679: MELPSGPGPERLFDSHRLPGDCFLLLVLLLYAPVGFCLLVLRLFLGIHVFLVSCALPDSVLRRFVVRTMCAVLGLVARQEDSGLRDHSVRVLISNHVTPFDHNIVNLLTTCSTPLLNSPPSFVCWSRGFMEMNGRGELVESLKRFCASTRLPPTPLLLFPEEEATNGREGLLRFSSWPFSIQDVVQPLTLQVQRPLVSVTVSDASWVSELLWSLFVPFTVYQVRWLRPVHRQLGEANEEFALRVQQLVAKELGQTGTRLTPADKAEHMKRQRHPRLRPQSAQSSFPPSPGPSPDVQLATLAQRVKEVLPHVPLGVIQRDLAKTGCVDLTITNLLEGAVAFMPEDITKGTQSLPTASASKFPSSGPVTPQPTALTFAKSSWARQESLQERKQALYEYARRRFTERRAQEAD
UniProt Q9Y5Y5: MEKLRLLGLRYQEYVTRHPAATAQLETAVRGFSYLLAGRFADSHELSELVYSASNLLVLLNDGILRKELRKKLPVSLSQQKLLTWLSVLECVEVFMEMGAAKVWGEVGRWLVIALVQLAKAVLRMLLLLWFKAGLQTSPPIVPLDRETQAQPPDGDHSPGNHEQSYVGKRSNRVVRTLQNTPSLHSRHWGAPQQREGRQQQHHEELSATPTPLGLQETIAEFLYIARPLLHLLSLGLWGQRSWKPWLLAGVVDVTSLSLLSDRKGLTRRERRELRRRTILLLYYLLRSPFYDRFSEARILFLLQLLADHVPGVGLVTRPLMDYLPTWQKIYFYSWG
UniProt Q9Y3X0: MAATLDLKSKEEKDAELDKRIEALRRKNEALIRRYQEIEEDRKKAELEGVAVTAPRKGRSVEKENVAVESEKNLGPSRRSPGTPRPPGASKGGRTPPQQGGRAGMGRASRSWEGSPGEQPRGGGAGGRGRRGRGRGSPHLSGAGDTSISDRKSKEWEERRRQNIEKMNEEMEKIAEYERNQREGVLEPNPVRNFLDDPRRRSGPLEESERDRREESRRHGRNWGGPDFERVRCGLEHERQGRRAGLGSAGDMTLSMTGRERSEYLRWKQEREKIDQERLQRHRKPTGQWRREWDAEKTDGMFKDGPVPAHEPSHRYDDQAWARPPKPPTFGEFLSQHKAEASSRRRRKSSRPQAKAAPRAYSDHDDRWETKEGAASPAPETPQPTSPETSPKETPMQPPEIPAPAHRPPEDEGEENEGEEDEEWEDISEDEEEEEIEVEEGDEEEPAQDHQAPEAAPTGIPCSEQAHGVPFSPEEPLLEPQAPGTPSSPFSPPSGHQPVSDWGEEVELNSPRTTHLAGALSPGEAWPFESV
UniProt Q9Y4P1: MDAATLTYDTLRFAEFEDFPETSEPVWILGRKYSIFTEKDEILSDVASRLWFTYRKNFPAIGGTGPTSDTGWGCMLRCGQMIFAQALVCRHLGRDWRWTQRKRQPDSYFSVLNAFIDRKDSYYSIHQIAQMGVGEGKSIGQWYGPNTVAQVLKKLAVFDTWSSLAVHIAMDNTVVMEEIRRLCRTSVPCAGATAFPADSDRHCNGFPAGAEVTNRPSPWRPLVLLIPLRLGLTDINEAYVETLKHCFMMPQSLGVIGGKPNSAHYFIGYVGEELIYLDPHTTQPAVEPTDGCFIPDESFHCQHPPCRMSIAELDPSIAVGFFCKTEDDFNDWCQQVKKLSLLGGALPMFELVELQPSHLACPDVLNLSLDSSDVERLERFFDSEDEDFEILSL
UniProt Q5VZ89: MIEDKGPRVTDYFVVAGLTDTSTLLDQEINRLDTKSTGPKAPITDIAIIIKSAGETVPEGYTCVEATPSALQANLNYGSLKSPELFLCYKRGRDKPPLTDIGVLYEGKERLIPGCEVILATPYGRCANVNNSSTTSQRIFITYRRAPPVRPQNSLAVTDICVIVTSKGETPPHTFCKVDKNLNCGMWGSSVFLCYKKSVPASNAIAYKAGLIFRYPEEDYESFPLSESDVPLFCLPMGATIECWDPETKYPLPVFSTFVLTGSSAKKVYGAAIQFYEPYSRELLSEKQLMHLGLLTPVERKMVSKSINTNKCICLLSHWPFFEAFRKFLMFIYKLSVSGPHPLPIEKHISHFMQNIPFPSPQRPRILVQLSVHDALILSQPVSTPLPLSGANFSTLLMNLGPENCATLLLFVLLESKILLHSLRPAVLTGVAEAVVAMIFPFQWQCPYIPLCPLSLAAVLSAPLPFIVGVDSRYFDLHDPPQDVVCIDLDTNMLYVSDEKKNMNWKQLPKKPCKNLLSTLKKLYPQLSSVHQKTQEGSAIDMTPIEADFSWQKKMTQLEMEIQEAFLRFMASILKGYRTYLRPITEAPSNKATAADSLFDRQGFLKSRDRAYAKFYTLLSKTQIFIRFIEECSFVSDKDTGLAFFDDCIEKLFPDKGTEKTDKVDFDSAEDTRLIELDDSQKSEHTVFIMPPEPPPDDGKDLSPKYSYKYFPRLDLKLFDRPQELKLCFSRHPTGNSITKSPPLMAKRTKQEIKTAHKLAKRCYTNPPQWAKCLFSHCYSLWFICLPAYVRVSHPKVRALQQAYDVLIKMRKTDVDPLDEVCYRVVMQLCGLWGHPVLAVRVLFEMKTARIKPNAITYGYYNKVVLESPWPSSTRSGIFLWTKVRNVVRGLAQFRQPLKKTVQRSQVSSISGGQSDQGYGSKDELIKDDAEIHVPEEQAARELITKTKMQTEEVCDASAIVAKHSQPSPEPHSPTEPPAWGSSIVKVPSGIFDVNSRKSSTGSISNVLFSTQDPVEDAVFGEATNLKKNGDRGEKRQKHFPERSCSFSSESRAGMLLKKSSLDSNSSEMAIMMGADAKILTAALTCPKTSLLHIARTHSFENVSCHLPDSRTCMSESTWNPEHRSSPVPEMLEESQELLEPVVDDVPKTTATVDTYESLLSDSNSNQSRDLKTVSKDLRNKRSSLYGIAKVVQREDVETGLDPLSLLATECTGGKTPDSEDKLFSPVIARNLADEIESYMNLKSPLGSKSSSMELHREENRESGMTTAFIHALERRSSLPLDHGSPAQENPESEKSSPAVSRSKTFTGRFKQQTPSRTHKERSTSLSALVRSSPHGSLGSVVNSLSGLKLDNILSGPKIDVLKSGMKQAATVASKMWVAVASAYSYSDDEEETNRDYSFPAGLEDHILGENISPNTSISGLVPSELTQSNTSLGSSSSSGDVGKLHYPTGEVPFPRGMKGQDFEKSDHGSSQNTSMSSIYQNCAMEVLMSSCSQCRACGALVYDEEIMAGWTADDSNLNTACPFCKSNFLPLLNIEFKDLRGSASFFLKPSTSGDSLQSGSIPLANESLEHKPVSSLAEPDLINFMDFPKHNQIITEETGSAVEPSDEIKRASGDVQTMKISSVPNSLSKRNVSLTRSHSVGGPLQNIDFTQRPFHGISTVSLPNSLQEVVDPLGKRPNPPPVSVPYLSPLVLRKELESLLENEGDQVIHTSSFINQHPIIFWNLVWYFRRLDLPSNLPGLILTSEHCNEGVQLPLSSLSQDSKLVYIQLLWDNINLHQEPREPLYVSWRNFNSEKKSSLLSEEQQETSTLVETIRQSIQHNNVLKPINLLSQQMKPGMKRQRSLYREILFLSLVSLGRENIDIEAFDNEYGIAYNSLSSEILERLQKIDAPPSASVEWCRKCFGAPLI

Compound in the test: Nc1ncnc2c1ncn2[C@@H]1O[C@H](COP(=O)(O)OP(=O)(O)NP(=O)(O)O)[C@@H](O)[C@H]1O [adenylyl imidodiphosphate]
Kind of test: NP40-soluble protein abundance relative to vehicle (solubility fold change) (ratio); higher = more soluble protein in presence of AMP-PNP. An outline of the steps: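 Jurkat crude lysate prepared with a Dounce homogeniser was treated at eight concentrations spanning 0.1 to 10 mM, 10 min at room temperature then 3 min at 37 °C. Solubilisation with 0.8% NP40 and benzonase and ultracentrifugation preceded TMT labelling of the supernatant for LC-MS/MS. Fold change against the detergent-processed vehicle was determined per replicate from vsn-normalised intensities, across three independent experiments.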

± gives the standard deviation of the averaged measurements. This is a selection; strong and weak results do not stand in their true shares. Most entries show no effect beyond the scatter of the controls.

Regarding FHOD1 (UniProt Q9Y613), the NP40-soluble protein abundance runs as follows: (concentration: 0.1mM) 1.01 ± 0.024; (concentration: 0.5mM) 0.982 ± 0.055.

Consider RBM19 (UniProt Q9Y4C8), for which the NP40-soluble protein abundance reads like this: (concentration: 0.1mM) 1 ± 0.015; (concentration: 0.5mM) 1 ± 0.035.

For the target UniProt Q9Y4B6 and related entries, the NP40-soluble protein abundance is, setting by setting: (concentration: 0.1mM) 1.03 ± 0.027; (concentration: 0.5mM) 0.976 ± 0.04.

In the case of AFG3L2 (UniProt Q9Y4W6), the NP40-soluble protein abundance reads like this: (concentration: 0.1mM) 1.02 ± 0.013; (concentration: 0.5mM) 1.03 ± 0.026.

As for UniProt Q9Y535 and related entries, the NP40-soluble protein abundance runs as follows: (concentration: 0.1mM) 1 ± 0.045; (concentration: 0.5mM) 1.01 ± 0.014.

In the case of TAF6L (UniProt Q9Y6J9), the NP40-soluble protein abundance is, setting by setting: (concentration: 0.1mM) 0.991 ± 0.049; (concentration: 0.5mM) 0.971 ± 0.032.

On to CLIC4 (UniProt Q9Y696), for which the NP40-soluble protein abundance is 1 ± 0.021 (concentration: 0.1mM) and 1.03 ± 0.032 (concentration: 0.5mM).

In the case of UniProt Q9Y4W2 and related entries, the NP40-soluble protein abundance amounted to 0.987 ± 0.015 (concentration: 0.1mM) and 1 ± 0.033 (concentration: 0.5mM).

With SH3BP1 (UniProt Q9Y3L3), the NP40-soluble protein abundance (concentration: 0.1mM) was 0.991 ± 0.03 and the NP40-soluble protein abundance (concentration: 0.5mM) came out at 0.994 ± 0.04.

With NOC2L (UniProt Q9Y3T9), the NP40-soluble protein abundance runs as follows: (concentration: 0.1mM) 1.01 ± 0.026; (concentration: 0.5mM) 1.04 ± 0.013.

On to SAMM50 (UniProt Q9Y512), for which the NP40-soluble protein abundance (concentration: 0.1mM) came to 1.08 ± 0.049 and the NP40-soluble protein abundance (concentration: 0.5mM) was found to be 0.954 ± 0.15.

Turning to UniProt Q9Y5W8 and related entries, the NP40-soluble protein abundance runs as follows: (concentration: 0.1mM) 1.01 ± 0.011; (concentration: 0.5mM) 1 ± 0.042.

UniProt Q9Y6R1 and related entries: the NP40-soluble protein abundance is, setting by setting: (concentration: 0.1mM) 0.983 ± 0.039; (concentration: 0.5mM) 1.006 ± 0.0077.

Consider UniProt Q9Y679 and related entries, for which the NP40-soluble protein abundance runs as follows: (concentration: 0.1mM) 1.01 ± 0.037; (concentration: 0.5mM) 0.999 ± 0.068.

ENPP4 (UniProt Q9Y6X5): the NP40-soluble protein abundance turned out to be 1 ± 0.035 (concentration: 0.1mM) and 1.06 ± 0.038 (concentration: 0.5mM).

Consider UniProt Q9Y5Y5 and related entries, for which the NP40-soluble protein abundance by setting is: (concentration: 0.1mM) 0.965 ± 0.016; (concentration: 0.5mM) 0.983 ± 0.019.

As for TLN1 (UniProt Q9Y490), the NP40-soluble protein abundance reads like this: (concentration: 0.1mM) 0.9808 ± 0.007; (concentration: 0.5mM) 0.998 ± 0.021.

Consider CCDC9 (UniProt Q9Y3X0), for which the NP40-soluble protein abundance (concentration: 0.1mM) was 1 ± 0.025 and the NP40-soluble protein abundance (concentration: 0.5mM) worked out at 1.02 ± 0.034.

As for UniProt Q9Y4P1 and related entries, the NP40-soluble protein abundance is, setting by setting: (concentration: 0.1mM) 0.993 ± 0.032; (concentration: 0.5mM) 0.993 ± 0.011.

As to “R4GN35 and related entries (UniProt Q5VZ89)”, the NP40-soluble protein abundance by setting is: (concentration: 0.1mM) 0.989 ± 0.029; (concentration: 0.5mM) 0.972 ± 0.049.

UniProt Q9Y5B6 and related entries: the NP40-soluble protein abundance (concentration: 0.1mM) came to 1 ± 0.017 and the NP40-soluble protein abundance (concentration: 0.5mM) came out at 1.04 ± 0.042.
